Reference: PubChem BioAssay AID1259300 (Sanger Institute, 2017)

- Purpose: 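siRNA screen of kinases and common colorectal cancer mutant genes, alone or with drugs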 (primary screen)
- Cells: HCT15 colorectal cancer cells
- Knock-down reagent: siRNA pool against human genes
- Challenge: anchor drug or DMSO vehicle added 24 h after seeding: BYL719 1 µM, cetuximab 5 µg/ml, trametinib 10 nM; drug doses chosen to barely affect viability alone
- Read-out: 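Cell viability after knock-down, as fraction of non-targeting pool wells averaged over replicates, plus robust z-score for knock-down alone; synergy score per drug (BYL719 1 µM, cetuximab 5 µg/ml, trametinib 10 nM)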
- Scale: viability z-score, siRNA alone: higher = more viable cells after knock-down
- Active means: 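a knock-down without drug that drives the robust viability z-score under -3 is active, i.e. essential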
- Calls: active = essential: knock-down alone lowers viability (z below -3); inactive = no strong viability loss with knock-down alone
Here is one part, drawn at random, of 794 reagents tested. 18 of all reagents (2.3%) were called active. 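Calls rest on knock-down alone, not drug synergy; depositor treated synergy scores above 0.15 as synergistic; drug doses alone had little viability effect.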 A number with no mark means an inactive call. Not all columns of the deposit are shown. Not given: the amount of reagent, the time to read-out.

BLK scored viability z-score, siRNA alone 0.625.
With knock-down of KSR1, the screen gave viability z-score, siRNA alone -1.65.
EIF2AK3 scored viability z-score, siRNA alone 0.625.
LMBR1 scored viability z-score, siRNA alone 0.389.
For AURKB, the values are viability z-score, siRNA alone -3.07 (active).
Against BUB1B, the values are viability z-score, siRNA alone -4.21 (active).
After knock-down of MAP4K1 the results were viability z-score, siRNA alone -0.686.
With knock-down of MAP3K11, the screen gave viability z-score, siRNA alone 0.0568.
Knock-down of AK3 came out at: viability z-score, siRNA alone 0.625.
With knock-down of PRKAR2A, the screen gave viability z-score, siRNA alone 0.222.
FGFR4 showed viability z-score, siRNA alone 0.625.
STK32A gave viability z-score, siRNA alone 0.625.
